Taken from: PubChem BioAssay AID504804 (Drosophila RNAi Screening Center, 2011)
In all, the deposit lists about 19,000 reagents; shown is a random part of those that have a named target and a result. In the full data, 47 (0.25%) were called active. 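Signals are raw, not normalised; exact z-scores behind calls not deposited; actives needed confirmation, so some wells reaching 2 SD are inactive.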 A plus sign joins genes that one reagent is predicted to hit.

Aim: 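Fly genes whose loss lessens doxorubicin-driven cell death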 (primary screen)
Cells: Drosophila Kc cells
Knock-down reagent: long dsRNA against Drosophila genes, 0.5 µg dsRNA per well
Time to read-out: 96 h (48 h knock-down, then 48 h drug)
Conditions: doxorubicin 5 µg/ml for 48 h, added 48 h after dsRNA
Measured: 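Luminescent ATP counts per replicate, not normalised, reflecting viable cells after 48 h dsRNA knock-down followed by 48 h of 5 µg/ml doxorubicin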
Scale: raw ATP luminescence: higher = more viable cells, protection from doxorubicin
Rule for the call: 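Active when both duplicate wells lie at least 2 SD above the plate mean and protection is confirmed by rescreening and independent dsRNAs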

no.	gene	DRSC id	SD above plate mean	raw ATP luminescence, replicate 1	raw ATP luminescence, replicate 2	call
1	grnd (grindelwald)	DRSC02020		35400	39503	inactive
2	CG7730	DRSC10909		24007	24697	inactive
3	vkg (viking)	DRSC03632		24020	27203	inactive
4	ppk20 (pickpocket 20)	DRSC16260		53550	49880	inactive
5	CG32652 (retired record)	DRSC18942		2.02e5	2.09e5	inactive
6	CG4630	DRSC06874		52937	51507	inactive
7	eIF4G2 (eukaryotic translation initiation factor 4G2)	DRSC14207		30903	31783	inactive
8	Mpi (Mannose phosphate isomerase)	DRSC16417		52853	59930	inactive
9	Trmt61 (tRNA methyltransferase 61)	DRSC14888		74310	62380	inactive
10	Art1 (Arginine methyltransferase 1)	DRSC16063		51367	21090	inactive
11	Gyg (Glycogenin)	DRSC03850		61860	53140	inactive
12	Gyg (Glycogenin)	DRSC04556		51487	49503	inactive
13	CG31038	DRSC16326		58960	45980	inactive
14	CG31038	DRSC16327		65390	34190	inactive
15	CG3107	DRSC04888		63533	73657	inactive
16	Ir75a (Ionotropic receptor 75a)	DRSC10188		97517	56460	inactive
17	sky (skywalker)	DRSC02383		88640	69083	inactive
18	sky (skywalker)	DRSC03214		93490	62483	inactive
19	sky (skywalker)	DRSC03215		59237	61730	inactive
20	twi (twist)	DRSC04720		38000	34490	inactive
21	Vta1 (Vesicle trafficking 1)	DRSC08604		1.91e5	2.02e5	inactive
22	mahj (mahjong)	DRSC04053		76233	58743	inactive
23	Hsp70Bb + Hsp70Ba + Hsp70Bc + 1 more	DRSC21247		3.01e5	2.92e5	inactive
24	Hsp70Bb + Hsp70Ba + Hsp70Bc + 1 more	DRSC21248		2.74e5	2.87e5	inactive
25	Src42A (Src oncogene at 42A)	DRSC04915		46377	46250	inactive
26	CG15369	DRSC18041		3.02e5	2.97e5	inactive
27	CG10195	DRSC02026		51323	51723	inactive
28	tko (technical knockout)	DRSC18844		49570	22330	inactive
29	sbm (sobremesa)	DRSC20185		3.61e5	3.11e5	inactive
30	CG10993	DRSC19362		3.02e5	3.44e5	inactive
31	rg (rugose)	DRSC17377		2.49e5	2.65e5	inactive
32	rg (rugose)	DRSC18049		45880	42310	inactive
33	HisT (Histamine transporter)	DRSC05051		76423	73927	inactive
34	HisT (Histamine transporter)	DRSC05052		73127	91537	inactive
35	HisT (Histamine transporter)	DRSC06405	at least 2 SD above plate mean	91247	86530	active
36	Uxs (UDP-xylose synthase)	DRSC10941		30613	35633	inactive
37	Fs (Follistatin)	DRSC06258		80143	81530	inactive
38	CG14182	DRSC10181		64650	67167	inactive
39	Ir94c (Ionotropic receptor 94c)	DRSC13539		2.05e5	2.45e5	inactive
40	CG9570	DRSC20687		4.17e5	3.38e5	inactive
41	Hsepi (Heparan sulfate C5-epimerase)	DRSC04986		56027	62160	inactive
42	Oatp30B (Organic anion transporting polypeptide 30B)	DRSC02727		84297	66877	inactive
43	CG15043	DRSC19619		2.61e5	2.60e5	inactive
44	CG34230	DRSC05317		87473	98067	inactive
45	asRNA:CR33945 (antisense RNA:CR33945)	DRSC14080		2.97e5	2.94e5	inactive
46	ftz (fushi tarazu)	DRSC12626		56347	53193	inactive
47	CG13670	DRSC10029		59650	78090	inactive
48	CG7367	DRSC03049		44530	58113	inactive
49	CG30196	DRSC04156		62770	51177	inactive
50	CG6583	DRSC02972		69450	68443	inactive
51	dec (defective chorion)	DRSC18759		40150	36080	inactive
52	CG32945	DRSC12014		74567	53760	inactive
53	CatB (Catalase B)	DRSC03194		1.09e5	69190	inactive
54	Br140 (Bromodomain-containing protein, 140kD)	DRSC06755		58420	47620	inactive
55	CG14443	DRSC17936		30450	43900	inactive
56	CR31292 (pseudo)	DRSC13120		2.96e5	3.61e5	inactive

The list goes on (2 carried over from the part before).
no.	gene	DRSC id	SD above plate mean	raw ATP luminescence, replicate 1	raw ATP luminescence, replicate 2	call
55	CG14443	DRSC17936		30450	43900	inactive
56	CR31292 (pseudo)	DRSC13120		2.96e5	3.61e5	inactive
57	CG32631	DRSC19768	2 to 3 SD above plate mean			inactive
58	GstO1 (Glutathione S transferase O1)	DRSC10688		75183	85343	inactive
59	Npc2h (Niemann-Pick type C-2h)	DRSC14297		76460	48910	inactive
60	p-cup (presidents-cup)	DRSC19513		2.43e5	2.28e5	inactive
61	CG30122	DRSC06776		45690	71157	inactive
62	CG17824 (retired record)	DRSC10288		75980	1.52e5	inactive
63	CG12589	DRSC12215		71443	61260	inactive
64	CG5906	DRSC10557		90530	73913	inactive
65	Jon25Bii (Jonah 25Bii)	DRSC03114		23340	33403	inactive
66	Gld2 (GLD2 poly(A) polymerase)	DRSC15863		16790	19000	inactive
67	flip (flippy)	DRSC12326		67217	56447	inactive
68	Nup154 (Nucleoporin 154kD)	DRSC03384		78657	60093	inactive
69	CG13840	DRSC14690		31970	31110	inactive
70	dmrt99B (doublesex-Mab related 99B)	DRSC15045		14710	12780	inactive
71	CG9581	DRSC20695		1.96e5	1.92e5	inactive
72	E(spl)m6-BFM (Enhancer of split m6, Bearded family member)	DRSC16993		64110	57230	inactive
73	CG42516 + Pbp49	DRSC06073		73087	63003	inactive
74	Ktch (Ketchup)	DRSC15094		64700	53140	inactive
75	CG31272	DRSC16058		57113	43587	inactive
76	THG (tRNA-histidine guanylyltransferase)	DRSC01896		66140	71663	inactive
77	GlyT (Glycine transporter)	DRSC04512		54447	48893	inactive
78	Dlip1 (Dorsal interacting protein 1)	DRSC18460		2.98e5	2.74e5	inactive
79	CG13510	DRSC04152		51903	73370	inactive
80	Cyp313a4 (Cytochrome P450 313a4)	DRSC16627		46057	47643	inactive
81	CG18404	DRSC15323		35380	41390	inactive
82	CG3505	DRSC15489		75870	42143	inactive
83	Rcd4 (Reduction in Cnn dots 4)	DRSC02597		40533	50263	inactive
84	CG10147	DRSC09706		69790	69370	inactive
